Assay results from patent US20170306038A1, “COMPOSITIONS AND METHODS OF USE FOR AUGMENTED IMMUNE RESPONSE AND CANCER THERAPY” (priority 2014, published 2017).
Positions count from the first letter of the chain named. These are yes or no findings as the source states them, for the method shown. Some entries that bind do so weakly or less than the wild type. For some assays here: Tags and fused reporters may be left off the sequences shown.

T1: Recombinant human GITR and human Fc fusion protein (hGITR-hFc) (human) (UniProt Q9Y5U5)
T1 sequence (chain, biotinylated in the ForteBio assay (sites not stated)): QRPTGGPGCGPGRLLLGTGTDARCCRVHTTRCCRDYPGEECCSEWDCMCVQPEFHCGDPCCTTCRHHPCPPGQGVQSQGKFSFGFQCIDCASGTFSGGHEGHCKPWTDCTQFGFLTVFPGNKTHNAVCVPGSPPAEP

T2: human GITR (hGITR) (human) (UniProt Q9Y5U5)
T2 sequence: T1 sequence (chain, biotinylated in the ForteBio assay (sites not stated))

B1: MAB1rFab (Fab, V domains shown)
VH: QVQLKESGPGLVAPSQSLSITCTVSGFSLRSYGVDWVRQPPGKGLEWLGVIWGGGGTNYNSALMAKLSISKDKSKSQVFLKMNSLQTDDTAMYYCAKHAYGHDGGFAMDYWGQGTSVTVSS
VL: EIVMTQSPKSMSMSVGERVTLSCKASENVDTFVSWYQQKPDHSPKLLIYGASNRYTGVPDRFTGSGSATDFTLTISSVQAEDLADYHCGQSYSYPFTFGSGTKLEIK
B2: MAB1 (antibody, V domains shown)
VH: B1 VH
VL: B1 VL with E1N

Key:
[1] = molecular target: T1, Recombinant human GITR and human Fc fusion protein (hGITR-hFc) (human); test: ForteBio Octet QK, streptavidin biosensors coated with biotinylated hGITR-hFc
[2] = molecular target: T2, human GITR (hGITR) (human); test: sandwich ELISA of hybridoma supernatant

Binder	binding [1]	binding [2]
B1	binds	
B2		binds
